Assay results published in publication doi:10.1101/2021.12.10.472004 (bioRxiv, 2021).

Experiments:
[1] = target: T1, Band 4.2 (human (endogenous in red blood cells)) (UniProt P16452); assay: cross-linking
T1 sequence: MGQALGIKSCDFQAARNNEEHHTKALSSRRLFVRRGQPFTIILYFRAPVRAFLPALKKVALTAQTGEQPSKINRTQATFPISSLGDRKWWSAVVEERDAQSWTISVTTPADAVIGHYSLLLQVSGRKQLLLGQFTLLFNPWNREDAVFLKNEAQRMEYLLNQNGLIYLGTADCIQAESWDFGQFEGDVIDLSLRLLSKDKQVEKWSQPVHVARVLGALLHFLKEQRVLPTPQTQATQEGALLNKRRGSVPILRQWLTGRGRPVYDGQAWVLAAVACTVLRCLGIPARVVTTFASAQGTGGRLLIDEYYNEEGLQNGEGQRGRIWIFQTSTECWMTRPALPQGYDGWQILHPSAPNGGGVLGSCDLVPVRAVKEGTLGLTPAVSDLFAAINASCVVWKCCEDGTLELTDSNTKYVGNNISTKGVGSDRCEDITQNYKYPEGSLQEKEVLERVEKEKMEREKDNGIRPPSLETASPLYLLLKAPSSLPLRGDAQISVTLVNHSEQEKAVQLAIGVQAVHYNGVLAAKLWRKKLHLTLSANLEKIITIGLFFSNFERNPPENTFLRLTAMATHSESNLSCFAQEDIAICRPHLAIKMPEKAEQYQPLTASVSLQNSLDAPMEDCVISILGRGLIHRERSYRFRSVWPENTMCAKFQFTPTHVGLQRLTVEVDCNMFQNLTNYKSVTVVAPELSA

[2] = target: T2, RhAG (human (endogenous in red blood cells)) (UniProt Q02094); assay: cross-linking
T2 sequence: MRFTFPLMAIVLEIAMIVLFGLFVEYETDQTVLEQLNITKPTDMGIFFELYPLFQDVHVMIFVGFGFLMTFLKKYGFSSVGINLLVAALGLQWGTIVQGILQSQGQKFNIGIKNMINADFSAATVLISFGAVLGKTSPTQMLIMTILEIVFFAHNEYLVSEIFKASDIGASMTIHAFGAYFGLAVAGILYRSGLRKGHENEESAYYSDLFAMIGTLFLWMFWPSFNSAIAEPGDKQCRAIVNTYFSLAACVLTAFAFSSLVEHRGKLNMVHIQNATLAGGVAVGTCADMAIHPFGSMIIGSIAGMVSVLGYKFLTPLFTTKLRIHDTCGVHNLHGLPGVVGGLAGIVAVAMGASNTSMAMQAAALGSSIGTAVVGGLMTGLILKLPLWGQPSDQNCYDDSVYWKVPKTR

RhCE/D (human (endogenous in red blood cells))
binding [1]: binds | binding [2]: binds

No constants are given. Whether binding was seen depends on the method and setting. In cells and extracts the contact can be indirect. A result given as binding can be weak or reduced; the word gives no strength.
